Assay results reported in the supplement of paper PMC12067093, “Discovery and optimisation of a covalent ligand for TRIM25 and its application to targeted protein ubiquitination” (Chemical Science, 2025).
This is one part of the list.

Chains of the proteins cited; added tags and fusions are not shown. Lines headed by an entry give the natural chain unless they say otherwise; changes in a name come on top.
UniProt Q9H8H2: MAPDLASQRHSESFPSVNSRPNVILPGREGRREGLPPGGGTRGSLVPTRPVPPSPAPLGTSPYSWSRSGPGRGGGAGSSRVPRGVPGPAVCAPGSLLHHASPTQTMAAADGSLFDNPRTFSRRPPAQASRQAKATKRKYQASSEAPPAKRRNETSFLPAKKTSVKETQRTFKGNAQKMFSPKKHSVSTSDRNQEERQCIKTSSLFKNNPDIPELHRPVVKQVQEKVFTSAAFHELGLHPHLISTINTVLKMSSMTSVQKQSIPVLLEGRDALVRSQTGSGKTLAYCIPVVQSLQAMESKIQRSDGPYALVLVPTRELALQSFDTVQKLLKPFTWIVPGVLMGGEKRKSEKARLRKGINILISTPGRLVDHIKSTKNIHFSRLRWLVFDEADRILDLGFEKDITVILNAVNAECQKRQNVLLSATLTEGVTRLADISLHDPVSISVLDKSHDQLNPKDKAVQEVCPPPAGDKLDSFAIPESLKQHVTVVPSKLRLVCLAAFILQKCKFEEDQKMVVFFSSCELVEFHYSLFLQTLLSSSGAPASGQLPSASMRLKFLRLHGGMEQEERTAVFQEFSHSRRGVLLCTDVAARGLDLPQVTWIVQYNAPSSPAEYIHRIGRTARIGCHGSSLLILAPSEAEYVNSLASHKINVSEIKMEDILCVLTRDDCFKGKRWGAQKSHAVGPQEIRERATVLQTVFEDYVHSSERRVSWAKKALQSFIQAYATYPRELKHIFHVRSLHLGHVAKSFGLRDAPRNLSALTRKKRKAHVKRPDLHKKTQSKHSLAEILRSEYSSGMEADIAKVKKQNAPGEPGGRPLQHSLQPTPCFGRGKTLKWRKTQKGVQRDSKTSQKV
UniProt Q13574: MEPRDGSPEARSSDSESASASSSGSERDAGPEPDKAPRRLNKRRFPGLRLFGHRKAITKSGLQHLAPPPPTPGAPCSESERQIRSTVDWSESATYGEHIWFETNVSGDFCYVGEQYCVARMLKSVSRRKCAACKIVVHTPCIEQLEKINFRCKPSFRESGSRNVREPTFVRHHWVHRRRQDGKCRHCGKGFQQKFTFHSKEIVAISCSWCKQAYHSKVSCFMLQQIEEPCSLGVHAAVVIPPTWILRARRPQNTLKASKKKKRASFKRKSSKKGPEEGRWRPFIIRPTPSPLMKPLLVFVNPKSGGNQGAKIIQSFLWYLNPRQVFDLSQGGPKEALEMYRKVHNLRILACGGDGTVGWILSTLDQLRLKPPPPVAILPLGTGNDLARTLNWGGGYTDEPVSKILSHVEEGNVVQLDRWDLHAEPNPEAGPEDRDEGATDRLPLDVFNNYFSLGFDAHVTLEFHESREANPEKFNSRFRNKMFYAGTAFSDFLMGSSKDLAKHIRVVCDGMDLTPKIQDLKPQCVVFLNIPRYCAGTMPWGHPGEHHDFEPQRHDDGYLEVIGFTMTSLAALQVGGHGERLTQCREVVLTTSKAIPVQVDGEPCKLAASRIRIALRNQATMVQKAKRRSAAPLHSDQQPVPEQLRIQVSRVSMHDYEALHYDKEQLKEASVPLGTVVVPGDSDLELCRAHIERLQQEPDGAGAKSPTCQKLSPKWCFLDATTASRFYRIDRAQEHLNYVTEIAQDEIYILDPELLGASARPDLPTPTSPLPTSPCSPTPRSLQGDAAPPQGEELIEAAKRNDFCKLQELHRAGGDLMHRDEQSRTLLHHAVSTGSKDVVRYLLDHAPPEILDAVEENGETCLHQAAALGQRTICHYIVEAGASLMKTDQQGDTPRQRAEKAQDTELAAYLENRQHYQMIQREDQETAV
UniProt Q9BUQ8: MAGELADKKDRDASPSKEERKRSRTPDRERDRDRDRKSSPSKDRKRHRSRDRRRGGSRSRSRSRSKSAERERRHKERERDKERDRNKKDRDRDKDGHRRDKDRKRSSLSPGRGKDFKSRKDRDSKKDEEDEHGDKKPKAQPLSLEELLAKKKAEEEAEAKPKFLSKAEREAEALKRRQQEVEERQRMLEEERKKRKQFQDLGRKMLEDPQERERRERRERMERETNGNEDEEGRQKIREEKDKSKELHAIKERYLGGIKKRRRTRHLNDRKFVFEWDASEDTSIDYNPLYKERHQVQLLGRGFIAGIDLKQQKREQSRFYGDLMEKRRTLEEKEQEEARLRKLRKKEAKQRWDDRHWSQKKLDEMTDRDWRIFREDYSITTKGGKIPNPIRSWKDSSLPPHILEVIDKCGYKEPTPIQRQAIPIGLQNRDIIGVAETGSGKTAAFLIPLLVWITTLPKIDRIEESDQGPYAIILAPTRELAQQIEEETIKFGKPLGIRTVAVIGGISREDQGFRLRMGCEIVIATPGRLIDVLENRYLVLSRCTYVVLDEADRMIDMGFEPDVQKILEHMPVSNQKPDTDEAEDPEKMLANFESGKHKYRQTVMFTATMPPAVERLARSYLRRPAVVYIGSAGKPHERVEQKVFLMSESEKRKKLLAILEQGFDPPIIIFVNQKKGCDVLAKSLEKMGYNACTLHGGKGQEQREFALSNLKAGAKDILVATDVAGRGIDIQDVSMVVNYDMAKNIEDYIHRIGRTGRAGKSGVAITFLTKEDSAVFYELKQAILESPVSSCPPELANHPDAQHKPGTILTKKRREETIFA
UniProt Q7L014: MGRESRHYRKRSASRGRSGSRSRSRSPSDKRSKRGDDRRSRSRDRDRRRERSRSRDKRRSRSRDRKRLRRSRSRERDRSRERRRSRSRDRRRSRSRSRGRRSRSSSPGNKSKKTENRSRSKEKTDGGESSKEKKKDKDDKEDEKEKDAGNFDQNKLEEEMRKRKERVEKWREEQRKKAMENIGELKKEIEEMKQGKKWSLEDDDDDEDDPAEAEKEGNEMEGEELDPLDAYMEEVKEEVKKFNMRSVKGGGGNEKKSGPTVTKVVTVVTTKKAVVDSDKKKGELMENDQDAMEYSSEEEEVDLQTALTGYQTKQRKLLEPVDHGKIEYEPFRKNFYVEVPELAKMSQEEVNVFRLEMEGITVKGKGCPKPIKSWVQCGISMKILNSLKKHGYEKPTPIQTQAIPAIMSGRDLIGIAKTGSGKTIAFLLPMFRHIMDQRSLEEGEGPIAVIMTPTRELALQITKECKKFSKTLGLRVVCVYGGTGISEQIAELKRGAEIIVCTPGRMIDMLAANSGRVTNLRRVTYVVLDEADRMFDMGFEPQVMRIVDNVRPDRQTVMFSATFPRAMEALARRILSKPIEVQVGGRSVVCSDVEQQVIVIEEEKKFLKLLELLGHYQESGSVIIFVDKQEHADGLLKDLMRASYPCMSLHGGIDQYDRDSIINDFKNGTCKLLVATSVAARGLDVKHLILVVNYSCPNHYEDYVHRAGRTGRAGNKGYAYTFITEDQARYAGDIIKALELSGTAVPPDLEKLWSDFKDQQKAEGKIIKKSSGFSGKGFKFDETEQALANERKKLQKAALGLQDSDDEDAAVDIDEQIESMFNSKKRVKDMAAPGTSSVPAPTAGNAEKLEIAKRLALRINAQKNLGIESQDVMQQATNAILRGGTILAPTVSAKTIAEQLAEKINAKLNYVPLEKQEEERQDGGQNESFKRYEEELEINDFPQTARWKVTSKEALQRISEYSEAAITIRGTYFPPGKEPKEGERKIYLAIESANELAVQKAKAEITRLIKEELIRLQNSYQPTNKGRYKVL
UniProt Q92499: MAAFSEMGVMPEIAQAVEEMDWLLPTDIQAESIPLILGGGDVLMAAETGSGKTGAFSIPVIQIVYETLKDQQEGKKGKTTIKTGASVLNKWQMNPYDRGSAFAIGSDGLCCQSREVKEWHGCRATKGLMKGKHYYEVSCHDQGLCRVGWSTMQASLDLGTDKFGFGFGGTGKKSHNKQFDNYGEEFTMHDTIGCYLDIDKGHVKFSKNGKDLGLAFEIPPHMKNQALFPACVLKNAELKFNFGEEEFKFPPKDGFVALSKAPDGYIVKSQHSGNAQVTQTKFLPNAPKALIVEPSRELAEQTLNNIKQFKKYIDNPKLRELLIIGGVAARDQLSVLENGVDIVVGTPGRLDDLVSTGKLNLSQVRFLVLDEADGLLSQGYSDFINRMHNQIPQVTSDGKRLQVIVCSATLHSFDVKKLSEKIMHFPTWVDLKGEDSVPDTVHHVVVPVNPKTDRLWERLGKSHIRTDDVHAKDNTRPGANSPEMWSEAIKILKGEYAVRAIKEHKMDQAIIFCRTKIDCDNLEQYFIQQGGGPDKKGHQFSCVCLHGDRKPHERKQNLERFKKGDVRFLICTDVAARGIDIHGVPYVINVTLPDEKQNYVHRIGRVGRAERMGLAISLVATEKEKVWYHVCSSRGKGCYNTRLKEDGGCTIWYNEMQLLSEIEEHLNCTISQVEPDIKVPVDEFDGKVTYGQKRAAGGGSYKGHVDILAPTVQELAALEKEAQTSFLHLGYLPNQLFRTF
UniProt Q5H9U9: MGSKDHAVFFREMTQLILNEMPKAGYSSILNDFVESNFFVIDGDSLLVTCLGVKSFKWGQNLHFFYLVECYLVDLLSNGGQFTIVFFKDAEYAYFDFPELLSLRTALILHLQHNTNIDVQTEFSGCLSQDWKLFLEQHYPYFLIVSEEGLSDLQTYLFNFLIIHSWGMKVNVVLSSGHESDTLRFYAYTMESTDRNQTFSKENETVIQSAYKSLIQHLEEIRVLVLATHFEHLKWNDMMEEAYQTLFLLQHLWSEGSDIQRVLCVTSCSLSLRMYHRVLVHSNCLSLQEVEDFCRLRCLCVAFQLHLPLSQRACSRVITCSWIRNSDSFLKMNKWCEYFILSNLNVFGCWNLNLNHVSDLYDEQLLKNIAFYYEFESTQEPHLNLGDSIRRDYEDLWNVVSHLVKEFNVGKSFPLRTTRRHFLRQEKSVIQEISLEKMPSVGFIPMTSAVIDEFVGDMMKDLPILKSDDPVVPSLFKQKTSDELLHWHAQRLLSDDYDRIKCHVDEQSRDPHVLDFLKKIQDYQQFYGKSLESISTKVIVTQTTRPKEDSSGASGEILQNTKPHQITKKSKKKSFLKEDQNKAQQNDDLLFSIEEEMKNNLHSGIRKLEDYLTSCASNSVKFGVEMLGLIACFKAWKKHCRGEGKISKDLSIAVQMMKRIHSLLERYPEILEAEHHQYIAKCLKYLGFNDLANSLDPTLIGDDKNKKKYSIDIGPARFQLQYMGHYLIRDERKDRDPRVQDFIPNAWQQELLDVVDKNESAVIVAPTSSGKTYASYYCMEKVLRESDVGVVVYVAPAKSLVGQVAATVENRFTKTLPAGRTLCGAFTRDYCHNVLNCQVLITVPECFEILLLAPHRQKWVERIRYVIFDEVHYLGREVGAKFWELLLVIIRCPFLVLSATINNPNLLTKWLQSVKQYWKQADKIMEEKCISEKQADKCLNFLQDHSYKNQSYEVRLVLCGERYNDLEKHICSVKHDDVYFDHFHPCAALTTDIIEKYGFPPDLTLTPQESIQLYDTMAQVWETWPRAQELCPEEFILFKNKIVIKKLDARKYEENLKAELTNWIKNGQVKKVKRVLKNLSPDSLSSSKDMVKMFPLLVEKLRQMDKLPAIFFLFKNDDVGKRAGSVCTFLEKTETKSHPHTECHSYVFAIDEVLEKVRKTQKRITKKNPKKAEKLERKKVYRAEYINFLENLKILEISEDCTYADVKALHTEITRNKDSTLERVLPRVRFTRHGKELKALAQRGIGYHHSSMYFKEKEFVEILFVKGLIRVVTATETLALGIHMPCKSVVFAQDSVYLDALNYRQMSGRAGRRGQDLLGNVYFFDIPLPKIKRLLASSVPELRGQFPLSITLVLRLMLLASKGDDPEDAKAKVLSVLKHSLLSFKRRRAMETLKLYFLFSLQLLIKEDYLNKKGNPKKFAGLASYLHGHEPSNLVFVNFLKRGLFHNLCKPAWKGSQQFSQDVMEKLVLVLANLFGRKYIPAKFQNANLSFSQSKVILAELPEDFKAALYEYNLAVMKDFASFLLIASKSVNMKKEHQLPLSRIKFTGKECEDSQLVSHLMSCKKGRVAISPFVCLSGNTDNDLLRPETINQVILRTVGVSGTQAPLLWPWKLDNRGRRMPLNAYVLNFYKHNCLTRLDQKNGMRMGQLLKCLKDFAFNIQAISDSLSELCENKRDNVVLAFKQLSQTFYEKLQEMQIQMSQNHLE
UniProt O95865: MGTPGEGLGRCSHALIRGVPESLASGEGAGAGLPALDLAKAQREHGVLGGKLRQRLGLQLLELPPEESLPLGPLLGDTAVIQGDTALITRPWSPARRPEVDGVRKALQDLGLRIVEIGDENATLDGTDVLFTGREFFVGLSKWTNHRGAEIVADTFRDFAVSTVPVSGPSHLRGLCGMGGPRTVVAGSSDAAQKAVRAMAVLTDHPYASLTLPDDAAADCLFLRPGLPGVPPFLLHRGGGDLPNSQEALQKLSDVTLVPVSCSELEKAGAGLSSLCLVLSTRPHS
UniProt Q9BTE7: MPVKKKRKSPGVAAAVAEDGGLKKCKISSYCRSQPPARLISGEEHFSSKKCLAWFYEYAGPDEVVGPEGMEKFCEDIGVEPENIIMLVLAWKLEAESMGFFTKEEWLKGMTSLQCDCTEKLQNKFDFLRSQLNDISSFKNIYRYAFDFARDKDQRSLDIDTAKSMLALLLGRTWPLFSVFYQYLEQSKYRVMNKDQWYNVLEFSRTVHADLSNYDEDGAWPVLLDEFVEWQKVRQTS

Compound: CC1Cc2ccccc2N1C(=O)C1CCCN(C1)C(=O)CCl (mixture of isomers) [TRIM25 ligand 11 (diastereomer mixture)]
Assay: probe-labelled cysteine peptide fold change vs DMSO (competition) (log2 fold change); higher = less target engagement (more negative = stronger competition)
Conditions: THP-1, incubation time: 4 h
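Note: competitive chemoproteomic profiling in live THP-1 cells with an iodoacetamide desthiobiotin (IA-DTB) probe, comparing probe-labelled peptide intensities in compound-treated cells against DMSO-treated controls.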

DDX31_Q9H8H2_584_GVLLCTDVAAR (UniProt Q9H8H2)
probe-labelled cysteine peptide fold change (10 µM): 0.0295
probe-labelled cysteine peptide fold change (50 µM): 0.0689

DENR_O43583_132_VCGLATFEIDLK (UniProt O43583)
probe-labelled cysteine peptide fold change (10 µM): 0.404
probe-labelled cysteine peptide fold change (50 µM): 0.391

DDX3X_O00571_468_GADSLEDFLYHEGYACTSIHGDR (UniProt O00571)
probe-labelled cysteine peptide fold change (10 µM): 0.146
probe-labelled cysteine peptide fold change (50 µM): -0.196

DGKZ_Q13574_793_AIPVQVDGEPCK (UniProt Q13574)
probe-labelled cysteine peptide fold change (10 µM): 0.052
probe-labelled cysteine peptide fold change (50 µM): -0.0179

DDX5_P17844_191_ELAQQVQQVAAEYCR (UniProt P17844)
probe-labelled cysteine peptide fold change (10 µM): 0.0856
probe-labelled cysteine peptide fold change (50 µM): 0.145

DGKH_Q86XP1_995_THLYIHHAIDLATEEVSQMQLCSQAAEELITR (UniProt Q86XP1)
probe-labelled cysteine peptide fold change (10 µM): 0.251
probe-labelled cysteine peptide fold change (50 µM): 0.126

DDX50_Q9BQ39_242_LSVACFYGGTSYQSQINHIR (UniProt Q9BQ39)
probe-labelled cysteine peptide fold change (10 µM): 0.0149
probe-labelled cysteine peptide fold change (50 µM): 0.092

DDX3X_O00571_317_GCHLLVATPGR (UniProt O00571)
probe-labelled cysteine peptide fold change (10 µM): -0.0548
probe-labelled cysteine peptide fold change (50 µM): 0.0612

DGCR8_Q8WYQ5_91_LLIDPNCSGHSPR (UniProt Q8WYQ5)
probe-labelled cysteine peptide fold change (10 µM): -0.00329
probe-labelled cysteine peptide fold change (50 µM): 0.0865

DDX27_Q96GQ7_316+321_QLAQFCNITTCLAVGGLDVK (UniProt Q96GQ7)
probe-labelled cysteine peptide fold change (10 µM): -0.0147
probe-labelled cysteine peptide fold change (50 µM): 0.186

DDX23_Q9BUQ8_519_MGCEIVIATPGR (UniProt Q9BUQ8)
probe-labelled cysteine peptide fold change (10 µM): 0.21
probe-labelled cysteine peptide fold change (50 µM): 0.19

DGKZ_Q13574_1063_TICHYIVEAGASLMK (UniProt Q13574)
probe-labelled cysteine peptide fold change (10 µM): -0.0699
probe-labelled cysteine peptide fold change (50 µM): -0.0525

DGKG_P49619_490_VLACGGDGTVGWILDCIDK (UniProt P49619)
probe-labelled cysteine peptide fold change (10 µM): 0.148
probe-labelled cysteine peptide fold change (50 µM): 0.225

DDX51_Q8N8A6_253_GGYRPSDLCVSAPTGSGK (UniProt Q8N8A6)
probe-labelled cysteine peptide fold change (10 µM): 0.12
probe-labelled cysteine peptide fold change (50 µM): 0.0522

DENND4C_Q5VZ89_88_SPELFLCYK (UniProt Q5VZ89)
probe-labelled cysteine peptide fold change (10 µM): 0.0326
probe-labelled cysteine peptide fold change (50 µM): 0.0835

DDX5_P17844_320_DYIHINIGALELSANHNILQIVDVCHDVEKDEK (UniProt P17844)
probe-labelled cysteine peptide fold change (10 µM): -0.181
probe-labelled cysteine peptide fold change (50 µM): -0.191

DDX41_Q9UJV9_294_CALCIGGMSVK (UniProt Q9UJV9)
probe-labelled cysteine peptide fold change (10 µM): -0.132
probe-labelled cysteine peptide fold change (50 µM): -0.0596

DENND4C_Q5VZ89_1211_VVQREDVETGLDPLSLLATECTGGK (UniProt Q5VZ89)
probe-labelled cysteine peptide fold change (10 µM): -0.00268
probe-labelled cysteine peptide fold change (50 µM): -0.0496

DDX42_Q86XP3_333_ELEPGDGPIAVIVCPTR (UniProt Q86XP3)
probe-labelled cysteine peptide fold change (10 µM): 0.0933
probe-labelled cysteine peptide fold change (50 µM): 0.0408

DDX10_Q13206_392_GLDFPAVNWVLQFDCPEDANTYIHR (UniProt Q13206)
probe-labelled cysteine peptide fold change (10 µM): 0.113
probe-labelled cysteine peptide fold change (50 µM): 0.0493

DDX46_Q7L014_501_GAEIIVCTPGR (UniProt Q7L014)
probe-labelled cysteine peptide fold change (10 µM): 0.0178
probe-labelled cysteine peptide fold change (50 µM): 0.0119

DGKA_P23743_253_ALPCEVSTYAK (UniProt P23743)
probe-labelled cysteine peptide fold change (10 µM): -0.119
probe-labelled cysteine peptide fold change (50 µM): -0.0402

DDX21_Q9NR30_537+539_TGVCICFYQHK (UniProt Q9NR30)
probe-labelled cysteine peptide fold change (10 µM): 0.016
probe-labelled cysteine peptide fold change (50 µM): 0.174

DCTPP1_Q9H773_110_CRVDLPLAVLSK (UniProt Q9H773)
probe-labelled cysteine peptide fold change (10 µM): -0.361
probe-labelled cysteine peptide fold change (50 µM): -0.184

DDX1_Q92499_406_RLQVIVCSATLHSFDVK (UniProt Q92499)
probe-labelled cysteine peptide fold change (10 µM): -0.12
probe-labelled cysteine peptide fold change (50 µM): 0.0785

DENND4B_O75064_652_HAALEFFDSCVEK (UniProt O75064)
probe-labelled cysteine peptide fold change (10 µM): 0.102
probe-labelled cysteine peptide fold change (50 µM): 0.0937

DDX39A_O00148_62+86_AIVDCGFEHPSEVQHECIPQAILGMDVLCQAK (UniProt O00148)
probe-labelled cysteine peptide fold change (10 µM): 0.305
probe-labelled cysteine peptide fold change (50 µM): -0.194

DDX46_Q7L014_696_HLILVVNYSCPNHYEDYVHR (UniProt Q7L014)
probe-labelled cysteine peptide fold change (10 µM): 0.00951
probe-labelled cysteine peptide fold change (50 µM): 0.0461

DDX23_Q9BUQ8_692_MGYNACTLHGGK (UniProt Q9BUQ8)
probe-labelled cysteine peptide fold change (10 µM): -0.0642
probe-labelled cysteine peptide fold change (50 µM): -0.0335

DDX31_Q9H8H2_624_IGCHGSSLLILAPSEAEYVNSLASHK (UniProt Q9H8H2)
probe-labelled cysteine peptide fold change (10 µM): 0.102
probe-labelled cysteine peptide fold change (50 µM): -0.251

DDX41_Q9UJV9_540_ACDESVLMDLK (UniProt Q9UJV9)
probe-labelled cysteine peptide fold change (10 µM): -0.0247
probe-labelled cysteine peptide fold change (50 µM): -0.111

DEF6_Q9H4E7_266+267_GIIPLDAHCCVEVLPDRDGKR (UniProt Q9H4E7)
probe-labelled cysteine peptide fold change (10 µM): -0.0276
probe-labelled cysteine peptide fold change (50 µM): 0.00378

DDX60L_Q5H9U9_1671_DFAFNIQAISDSLSELCENKR (UniProt Q5H9U9)
probe-labelled cysteine peptide fold change (10 µM): 0.195
probe-labelled cysteine peptide fold change (50 µM): 0.494

DDX59_Q5T1V6_208_QQLGILVQGQEVTRPIIDFEHCSLPEVLNHNLKK (UniProt Q5T1V6)
probe-labelled cysteine peptide fold change (10 µM): -0.239
probe-labelled cysteine peptide fold change (50 µM): -0.182

DDAH2_O95865_176_GLCGMGGPR (UniProt O95865)
probe-labelled cysteine peptide fold change (10 µM): -0.108
probe-labelled cysteine peptide fold change (50 µM): -0.289

DDX1_Q92499_231_NQALFPACVLK (UniProt Q92499)
probe-labelled cysteine peptide fold change (10 µM): -0.0868
probe-labelled cysteine peptide fold change (50 µM): -0.048

DCUN1D5_Q9BTE7_117_GMTSLQCDCTEK (UniProt Q9BTE7)
probe-labelled cysteine peptide fold change (10 µM): -0.0398
probe-labelled cysteine peptide fold change (50 µM): 0.0636

DENND4A_Q7Z401_35_PLEEEIHFNDACHK (UniProt Q7Z401)
probe-labelled cysteine peptide fold change (10 µM): 0.118
probe-labelled cysteine peptide fold change (50 µM): 0.123

DDX17_Q92841_166_GGDVCPK (UniProt Q92841)
probe-labelled cysteine peptide fold change (10 µM): -0.00595
probe-labelled cysteine peptide fold change (50 µM): 0.0245

DDX21_Q9NR30_378_KDSEDNPQTLLFSATCPHWVFNVAK (UniProt Q9NR30)
probe-labelled cysteine peptide fold change (10 µM): -0.013
probe-labelled cysteine peptide fold change (50 µM): -0.0568

DDAH2_O95865_11_CSHALIR (UniProt O95865)
probe-labelled cysteine peptide fold change (10 µM): 0.0956
probe-labelled cysteine peptide fold change (50 µM): -0.0505

DDX24_Q9GZR7_639_LEDCVLLATDVAAR (UniProt Q9GZR7)
probe-labelled cysteine peptide fold change (10 µM): 0.0579
probe-labelled cysteine peptide fold change (50 µM): 0.0986

DDX3X_O00571_468_KGADSLEDFLYHEGYACTSIHGDR (UniProt O00571)
probe-labelled cysteine peptide fold change (10 µM): 0.0542
probe-labelled cysteine peptide fold change (50 µM): -0.0542

DDX21_Q9NR30_445_TIIFCETK (UniProt Q9NR30)
probe-labelled cysteine peptide fold change (10 µM): 0.124
probe-labelled cysteine peptide fold change (50 µM): 0.214

DENND4C_Q5VZ89_1211_EDVETGLDPLSLLATECTGGK (UniProt Q5VZ89)
probe-labelled cysteine peptide fold change (10 µM): 0.0495
probe-labelled cysteine peptide fold change (50 µM): -0.339

DFFA_O00273_47_ACDILAIDK (UniProt O00273)
probe-labelled cysteine peptide fold change (10 µM): -0.0219
probe-labelled cysteine peptide fold change (50 µM): -0.13

DDX17_Q92841_584_TTSSANNPNLMYQDECDRR (UniProt Q92841)
probe-labelled cysteine peptide fold change (10 µM): 0.144
probe-labelled cysteine peptide fold change (50 µM): 0.00204

DDX28_Q9NUL7_453_DILLCTDIASR (UniProt Q9NUL7)
probe-labelled cysteine peptide fold change (10 µM): 0.0908
probe-labelled cysteine peptide fold change (50 µM): 0.0393

DDX5_P17844_354_RCDELTR (UniProt P17844)
probe-labelled cysteine peptide fold change (10 µM): -0.0479
probe-labelled cysteine peptide fold change (50 µM): 0.192

DDX60L_Q5H9U9_615_KLEDYLTSCASNSVK (UniProt Q5H9U9)
probe-labelled cysteine peptide fold change (10 µM): -0.0574
probe-labelled cysteine peptide fold change (50 µM): 0.0613

DDX39A_O00148_62_AIVDCGFEHPSEVQHECIPQAILGMDVLCQAK (UniProt O00148)
probe-labelled cysteine peptide fold change (10 µM): 0.064
probe-labelled cysteine peptide fold change (50 µM): 0.0582

DEPDC7_Q96QD5_65_HNDCFVGSEAVDVIFSHLIQNK (UniProt Q96QD5)
probe-labelled cysteine peptide fold change (10 µM): 0.0886
probe-labelled cysteine peptide fold change (50 µM): 0.0289

DGAT2_Q96PD7_312_YIGFAPCIFHGR (UniProt Q96PD7)
probe-labelled cysteine peptide fold change (10 µM): 0.0098
probe-labelled cysteine peptide fold change (50 µM): 0.249

DDB1_Q16531_128_PSETGIIGIIDPECR (UniProt Q16531)
probe-labelled cysteine peptide fold change (10 µM): -0.189
probe-labelled cysteine peptide fold change (50 µM): 0.032

DDX20_Q9UHI6_162_MEGLECHVFIGGTPLSQDK (UniProt Q9UHI6)
probe-labelled cysteine peptide fold change (10 µM): 0.107
probe-labelled cysteine peptide fold change (50 µM): 0.374

DDX17_Q92841_166+199_GGDVCPKPVFAFHHANFPQYVMDVLMDQHFTEPTPIQCQGFPLALSGR (UniProt Q92841)
probe-labelled cysteine peptide fold change (10 µM): -0.612
probe-labelled cysteine peptide fold change (50 µM): -0.604

DDX17_Q92841_199_GGDVCPKPVFAFHHANFPQYVMDVLMDQHFTEPTPIQCQGFPLALSGR (UniProt Q92841)
probe-labelled cysteine peptide fold change (10 µM): -0.173
probe-labelled cysteine peptide fold change (50 µM): -0.356

DDB1_Q16531_903_TECNHYNNIMALYLK (UniProt Q16531)
probe-labelled cysteine peptide fold change (10 µM): 0.114
probe-labelled cysteine peptide fold change (50 µM): 0.0907

DDX1_Q92499_406_LQVIVCSATLHSFDVK (UniProt Q92499)
probe-labelled cysteine peptide fold change (10 µM): 0.000348
probe-labelled cysteine peptide fold change (50 µM): 0.0541

DDX1_Q92499_519_TKIDCDNLEQYFIQQGGGPDKK (UniProt Q92499)
probe-labelled cysteine peptide fold change (10 µM): -0.196
probe-labelled cysteine peptide fold change (50 µM): -0.185

DENND3_A2RUS2_1094_DTSTSFLAFQLLPEEEQLWAACAGR (UniProt A2RUS2)
probe-labelled cysteine peptide fold change (10 µM): 1.22
probe-labelled cysteine peptide fold change (50 µM): -0.0979

DDX3X_O00571_298_VRPCVVYGGADIGQQIR (UniProt O00571)
probe-labelled cysteine peptide fold change (10 µM): 0.0311
probe-labelled cysteine peptide fold change (50 µM): 0.0746

DDX21_Q9NR30_291_LSVACFYGGTPYGGQFER (UniProt Q9NR30)
probe-labelled cysteine peptide fold change (10 µM): -0.101
probe-labelled cysteine peptide fold change (50 µM): 0.0957

DCXR_Q7Z4W1_58_ECPGIEPVCVDLGDWEATER (UniProt Q7Z4W1)
probe-labelled cysteine peptide fold change (10 µM): 0.146
probe-labelled cysteine peptide fold change (50 µM): 0.353

DENND6A_Q8IWF6_130_VSLHCLLDQFDK (UniProt Q8IWF6)
probe-labelled cysteine peptide fold change (10 µM): 0.3
probe-labelled cysteine peptide fold change (50 µM): -0.162

DDX5_P17844_320_DYIHINIGALELSANHNILQIVDVCHDVEK (UniProt P17844)
probe-labelled cysteine peptide fold change (10 µM): 0.213
probe-labelled cysteine peptide fold change (50 µM): -0.0468

DDX6_P26196_102_GNEFEDYCLK (UniProt P26196)
probe-labelled cysteine peptide fold change (10 µM): 0.043
probe-labelled cysteine peptide fold change (50 µM): -0.134
